The target of the experiment is GST fusion of the ENTH domain of Ent1 (yeast epsin 1) (yeast) (UniProt Q12518). Description: pull-down; GST-tagged bait on glutathione beads, 6xHis-tagged prey, overnight at 4°C; 150 mM NaCl, 4 mM DTT, 4 mM β-mercaptoethanol, 0.1% NP-40, 0.05% BSA, 20 mM HEPES pH 7.4; anti-His immunoblot, densitometry; without IP6 or no phosphoinositol additive named; both purified.

The chains behind the UniProt entries cited, without tags or fusion partners. Where a name states a change or a piece, a line headed by the entry shows the natural chain unless it says otherwise.
UniProt Q12518: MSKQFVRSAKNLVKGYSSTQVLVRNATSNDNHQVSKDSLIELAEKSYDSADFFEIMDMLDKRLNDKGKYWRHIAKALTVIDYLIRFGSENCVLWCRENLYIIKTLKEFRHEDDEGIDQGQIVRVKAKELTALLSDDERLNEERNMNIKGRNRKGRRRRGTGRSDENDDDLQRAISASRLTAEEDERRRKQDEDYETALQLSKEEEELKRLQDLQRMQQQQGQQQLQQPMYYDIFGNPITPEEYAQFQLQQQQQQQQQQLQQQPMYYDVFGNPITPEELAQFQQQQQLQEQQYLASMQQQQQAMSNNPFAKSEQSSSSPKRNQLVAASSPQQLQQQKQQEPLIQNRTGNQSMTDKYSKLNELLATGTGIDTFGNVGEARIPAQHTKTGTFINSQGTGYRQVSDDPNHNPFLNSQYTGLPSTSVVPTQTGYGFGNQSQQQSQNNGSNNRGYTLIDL

No constants are given. Whether binding was seen depends on the method and setting. A result given as binding can be weak or reduced; the word gives no strength. Sequences can lack the tags named with a protein.

One molecule from PMC4161027 can be followed below.

B1: His-Snc1 cytosolic tail (aa1-93) (domain or fragment, UniProt P31109 1-93)
chain: MSSSTPFDPYALSEHDEERPQNVQSKSRTAELQAEIDDTVGIMRDNINKVAERGERLTSIEDKADNLAVSAQGFKRGANRVRKAMWYKDLKMK
Consider B1, for which the binding result is given as “binds”.
